The results in this text go back to patent US6376584B1, “Hydroxy-substituted N-alkoxy hindered amines and compositions stabilized therewith” (Ciba Specialty Chemicals Corporation, priority 1999, dated 2002).

Data set [1] is described as follows: Flame retardancy of polypropylene fiber socks, NFPA701-1996 vertical burn. The note with it: additive 1.0% in polypropylene fiber sock. As for the experimental part:
Fiber grade polypropylene, is dry blended with the test additives and then melt is compounded at 234° C. (450° F.) into pellets. All formulations additionally contain melt processing stabilizer system. The pelletized fully formulated resin is then spun at 246° C. (475° F.) into fiber using a Hills laboratory model fiber extruder. The spun tow of 41 filaments is stretch at a ratio of 1:3.2 to give a final denier of 615/41.
The fibers are then knitted into socks and on a Lawson-Hemphill Analysis Knitter. Ten replicates of each sample are tested under NFPA701-1996 Vertical burn procedure. The time in seconds for the knitted sock to extinguish after the insult flame is removed is reported as “After Flame”. […] The burning time of the drips from the material and the weight loss are also recorded.

A short description of data set [2]: Light stability of yellow chromogenic photographic layers (Atlas WeatherOmeter). As for the experimental part: Chromogenic photographic layers are prepared by hand-coating a gelatine emulsion containing silver bromide, yellow coupler and an additive on a polyethylene-coated paper.
The layers are dried for 7 days in a ventilated cabinet.
The dried samples are exposed to white light through a stepwedge of 0.3 logE exposure steps. They are developed with the P94 process for negative colour paper from Agfa-Gevaert, following the manufacturers' recommendations.
After exposure and processing, the remission density of the yellow dye is measured in the blue channel. The samples are then exposed in an Atlas WeatherOmeter behind a separate UV filter so as to receive 60 kJ/cm^2 light energy. The UV filter consists of an emulsion coated onto a polyester transparent support, such that the layer contains 1 g/m^2 Tinuvin B976®. The temperature is 43° C. and the relative humidity 50%. The density loss starting from a blue-density of 1 is determined. Low ΔD number are desired.

The nature of data set [3]: 20° gloss retention of two-component acrylic urethane clearcoat, Xenon-Arc Weather-Ometer. How it is done: The hindered amine test stabilizers are incorporated into a two-component acrylic urethane coating as described in Example 99. The system is catalyzed with 0.02% by weight of dibutyltin dilaurate based on the total resin solids. The stabilizers are added at the appropriate level to the acrylic polyol portion of the two-component coating which is then combined with the isocyanate component immediately prior to application.
Steel panels 3″×4″ primed with an electrocoat primer are then coated with a light blue metallic basecoat, then with the stabilized clearco at. The basecoat is spray applied to a thickness of 1.0 mil (25 microns) dry film thickness and the stabilized clearcoat is then applied to a thickness of 2.0 mils (50 microns) dry film thickness. The coating is air-dried and aged for two weeks. The panels are then exposed in a Xenon-Arc Weather-Ometer under the following conditions:
(§1) Cam 180 cycle: 40 minutes light only; 20 minutes light and front spray; 60 minutes light only; 60 minutes dark and rear spray condensate.
Lamp filters are: quartz inner/borosilicate S outer.
Irradiance: 0.45 watts per square meter.
20° Gloss is measured before exposure and at 500 hour intervals during exposure. Higher gloss retention is desirable.

A short description of data set [4]: Film loss of acrylic urethane clearcoat on silicon disks, Xenon-Arc Weather-Ometer. As for the experimental part: A clearcoat as prepared in Example 108 is applied by spin-coating to 1″ silicon disks to a dry film thickness of approximately 25 microns. The initial optical film thickness of each disk is measured using a Zeiss interferometer. The disks are then exposed in a Xenon-Arc Weather-Ometer under the following conditions:
as §1
Lamp filters are: quartz inner/quartz outer.
Irradiance: 0.55 watts per square meter.
Optical film thickness is remeasured every 250 hours and film loss is determined for each formulation. A lower value for film loss is desirable.

For `CCCCCCCCCCCCCCCCCC(=O)OC1CC(C)(C)N(OCC(C)(C)O)C(C)(C)C1` [Example 73, 1-(2-Hydroxy-2-methylpropoxy)-4-octadecanoyloxy-2,2,6,6-tetramethylpiperidine], in data set [1], the After flame came out at 0.5 s, the “Drip Burn” value was 12.5 s and the Weight loss is recorded as 36%. Further, the “-DD(60 kJ/cm^2, from OD = 1)” value in data set [2] (Coupler CoupY1) is on record as 59. Besides, in data set [2] (Coupler CoupY3), the “-DD(60 kJ/cm^2, from OD = 1)” value stood at 22.
Regarding `CC(C)(O)CON1C(C)(C)CC(CCCCNc2nc(NCCO)nc(NCCCCC3CC(C)(C)N(OCC(C)(C)O)C(C)(C)C3)n2)CC1(C)C` [Example 12, 2,4-Bis {N-[1-(2-hydroxy-2-methylpropoxy)-2,2,6,6-tetramethylpiperidin-4-yl]butylamino}-6-(2-hydroxyethyl)amino-s-triazine], the “Percent Retention of 20° Gloss” value in data set [3] (4500 hours) came out at 41%; in data set [3] (8500 hours) it was 23%. Further, the “Film Loss” value in data set [4] (3972 hours) stood at 5.9 microns; in data set [4] (5561 hours) it was 12.4 microns.
The matching figures for `CCCCN(c1nc(NCCO)nc(N(CCCC)C2CC(C)(C)N(OC3CCCCC3)C(C)(C)C2)n1)C1CC(C)(C)N(OC2CCCCC2)C(C)(C)C1` [D, 2,4-bis[N-(1-cyclohexyloxy-2,2,6,6-tetramethylpiperidin-4-yl)-N-butylamino]-6-(2-hydroxyethylamino)-s-triazine, reference compound]: 34%, 22%, 6.3 microns and 14.3 microns.
